Results of single-concentration screens

Data taken from ChEMBL document CHEMBL3988442, “University of Dundee, Small-Polar-MMV Screening Library” (2021).

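Growth of Mycobacterium tuberculosis over 4 days (cholesterol / DPPC medium with tyloxapol); the read-out is not stated. Compounds at 50 µM. Direction is inferred from retests: higher values go with more growth inhibition. About 69,000 compounds were tested under these conditions; 0.54% (about 370) showed 50% or more at least once.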

Results are given as percent effect.
How 0% and 100% were set is not recorded. Most values in the screen are low, and negative values occur.
The compounds are a random part of those screened.
Two or more numbers in one place are separate tests of the same structure; such repeats can differ widely.

| compound | percent effect |
|---|---|
| `O=C(O)[C@@H]1CN(C2CCCCC2)C[C@H]1C1CC1` | 5.434 |
| `Cc1cc(C(=O)N2CCCC2)ccc1NCCO` | -6.101 |
| `Cn1cnnc1CCC(=O)N1CCCC(OCc2cccnc2)C1` (configuration not stated) | -16.69 |
| `Cc1cc(C(=O)NCc2ccc(-c3n[nH]cc3C(=O)N(C)C)cc2)on1` | -5.989 and -5.811 |
| `O=C(O)C(F)(F)F.[H][C@@]12CCN(c3ncc(F)cn3)[C@]1([H])CC[C@H](C(=O)NCc1ccco1)O2` | 13.92 |
| `CCN1CCC(NC(=O)CN2CCCC2Cn2nc(C)nc2C)CC1` (configuration not stated) | -25.15 |
| `c1coc(-c2nnc(CN(Cc3cccs3)CC3CCCO3)o2)c1` (configuration not stated) | 24.57 |
| `CCCn1ncc2c(C(=O)NC(C)Cn3cccn3)cc(C3CC3)nc21` (configuration not stated) | -0.8035 |
| `Cc1cccc(C2CCCN(S(=O)(=O)c3cccnc3)C2)n1` (configuration not stated) | 2.056 and 1.231 |
| `Cc1nc2ccccc2nc1CN(C)CC1CCCN1c1cccnn1` (configuration not stated) | -16.61 |
| `CC1(C)CN(CC(F)(F)F)CCN1CC(N)=O` | 0.3716 |
| `CCOC(=O)c1ccc(S(=O)(=O)NCC(CC)N2CCCC2)cc1` (configuration not stated) | 8.508 |
| `CCOCCCNC(=O)c1cn(C(C)(C)C)c2ncccc12` | -10.87 |
| `CC(C)OC(C)c1nnc(SCC(=O)O)n1-c1ccc(F)cc1F` (configuration not stated) | -3.195 and -8.449 |
| `COc1cccc(CC(=O)N2CC[C@@H](OC)[C@@H]2Cc2cccnc2)c1.O=C(O)C(F)(F)F` | -10.14 |
| `O=C(c1ccc(-n2cncn2)cc1)N1CCN(c2cnccn2)CC1` | -7.149 |
| `CC(NCc1ccccn1)c1ccc(N2CCN(C)CC2)c(F)c1` (configuration not stated) | 1.929 |
| `CN(CC(N)=O)CC1(c2ccc(Br)cc2)CC1` | 13.81 |
| `CCn1c(C)cc(C(=O)Nc2ccccc2CN(C)C(C)=O)c1C` | 20.41 |
| `O=C(O)C(F)(F)F.[H][C@]12CCN(c3ncc(C)cn3)[C@@]1([H])CCC(COCC(=O)N(C)C)O2` (some centres not stated) | -12.45 |
| `Cc1cc(C)c2c(c1)C(NC(=O)CSCC(N)=O)CCO2` (configuration not stated) | -5.273 |
| `[H][C@@]12C[C@@H](c3nnc(C)[nH]3)O[C@]1([H])CN(S(=O)(=O)c1cccc(C)c1)C2` | 5.626 |
| `CC(C)N1CCC(Cc2cnc(-c3cccc(C(=O)O)c3)cn2)C1` (configuration not stated) | -8.935 |
| `Cc1cc(CC(=O)NCC(O)COc2ccc(F)c(F)c2)n[nH]1` (configuration not stated) | -15.44 |
| `Cc1noc(-c2ccnc(N3CCC(CN4CCOCC4)CC3)c2)n1` | -1.323 |
| `COCCN1CCOCC2(C1)CN(C(=O)c1conc1C)CCO2.O=C(O)C(F)(F)F` (configuration not stated) | -19.87 |
| `N#Cc1nccnc1NC1CCN(c2ccccc2Br)C1` (configuration not stated) | 9.449 |
| `Cc1noc(C2CCCN(CC(=O)N3CCNC(=O)C3)C2)n1` (configuration not stated) | 4.289 |
| `CN1C(=O)C(c2cccnc2)CC12CCN(CCO)CC2` (configuration not stated) | 10.52 |
| `Cc1cc(NC(=O)CN2CCCC2c2noc(C)n2)n(C)n1` (configuration not stated) | -23.18 |
| `COc1ccnc(N2CCN(C(C)c3nc(C)no3)CC2)n1` (configuration not stated) | -9.887 |
| `Cn1c(Cn2cccn2)nnc1C1CCCN(c2ccncc2)C1` (configuration not stated) | 28.7 |
| `C=C(C)COc1cccc(CNC(COC)c2ccnn2C)c1` (configuration not stated) | -4.528 and 1.696 |
| `CN1CC2(CCC1=O)CCN(CC[C@@H](O)c1ccccc1)CC2` | -5.833 |
| `CN(Cc1nccn1C)C1CCN(CCc2ccccn2)CC1` | -4.899 |
| `O=C(c1ccc(Cl)s1)N1CCC2(COc3ncccc3S(=O)(=O)N2)C1` (configuration not stated) | -11.2 |
| `CN(C)c1cc(N(C)Cc2cc(C(C)(C)C)n[nH]2)ncn1` | -4.887 |
| `Cl.c1ccc(CCNc2cccc(C3CCCNC3)n2)cc1` (configuration not stated) | 8.525 |
| `COc1ccc(CNc2nc(C3CC3)no2)cc1OC` | 4.317 and -4.612 |
| `Cc1cccc(-c2ncc(CNC(C)CO)cn2)c1` (configuration not stated) | -2.122 |
| `CS(=O)(=O)N1CCC2(COCc3cnc(-c4ccccc4)nc32)C1` (configuration not stated) | -6.554 |
| `CS(=O)(=O)N1CCC(NC(=O)COc2ccc(Br)cc2Cl)CC1` | -16.56 |
| `CCc1cnc(C(C)NC(=O)N2CCCN(CC(F)F)CC2)s1` (configuration not stated) | -1.029 |
| `Clc1ccc(-c2cnc(CNC3CCc4ncnn4C3)o2)cc1` (configuration not stated) | 5.074 |
| `O=C(c1ccnc(C2CCNCC2)c1)N1CCCC(CO)C1` (configuration not stated) | 4.341 and -10.18 |
| `Cn1cc(NC(=O)N2CCCC2c2cccnc2)ccc1=O` (configuration not stated) | -17.34 |

4 of the entries, repeated:

For N#Cc1nccnc1NC1CCN(c2ccccc2Br)C1 (configuration not stated) the result was 9.449%.
For COCCN1CCOCC2(C1)CN(C(=O)c1conc1C)CCO2.O=C(O)C(F)(F)F (configuration not stated) the result was -19.87%.
For O=C(O)C(F)(F)F.[H][C@@]12CCN(c3ncc(F)cn3)[C@]1([H])CC[C@H](C(=O)NCc1ccco1)O2 the result was 13.92%.
For Cc1nc2ccccc2nc1CN(C)CC1CCCN1c1cccnn1 (configuration not stated) the result was -16.61%.